{"source": "patent US7456023B2", "about": "“Reagent for luminescence optical determination of an analyte” (Roche Diagnostics Operations, Inc., priority 2000, dated 2008)", "assay": "O2 sensitivity of the donor dye in sensor films by phase shift of the luminescence (45 kHz, blue LED, OG 570)", "format": "physicochemical", "data": [{"smiles": "C[Si](C)(C)CCCS(=O)(=O)[O-].C[Si](C)(C)CCCS(=O)(=O)[O-].[Ru+2].c1ccc(-c2ccnc3c2ccc2c(-c4ccccc4)ccnc23)cc1.c1ccc(-c2ccnc3c2ccc2c(-c4ccccc4)ccnc23)cc1.c1ccc(-c2ccnc3c2ccc2c(-c4ccccc4)ccnc23)cc1", "note": "[Ru(diphphen)3TMS2, Ru(II)-tris-(4,7-diphenyl-1,10-phenanthroline) (3-trimethylsilyl)-1-propane sulphonate]", "values": [{"measurement": "Phase angle", "setting": "donor dye embedded in polyacryl nitrile nanoparticles in D4 film, dry, N2", "value": 58.2, "unit": "°"}, {"measurement": "Phase angle", "setting": "donor dye embedded in polyacryl nitrile nanoparticles in D4 film, dry, air", "value": "57.4°;"}, {"measurement": "Phase angle", "setting": "donor dye embedded in polyacryl nitrile nanoparticles in D4 film, water, O2 free (SO3^2−)", "value": 58.6, "unit": "°"}, {"measurement": "Phase angle", "setting": "donor dye embedded in polyacryl nitrile nanoparticles in D4 film, water, air saturated", "value": 56.8, "unit": "°"}, {"measurement": "Phase angle", "setting": "donor dye unprotected in acceptor phase (polymer D4 film), dry, N2", "value": 58.3, "unit": "°"}, {"measurement": "Phase angle", "setting": "donor dye unprotected in acceptor phase (polymer D4 film), dry, air", "value": 55.4, "unit": "°"}, {"measurement": "Phase angle", "setting": "donor dye unprotected in acceptor phase (polymer D4 film), water, N2 saturated", "value": 58.4, "unit": "°"}, {"measurement": "Phase angle", "setting": "donor dye unprotected in acceptor phase (polymer D4 film), water, air saturated", "value": 53.5, "unit": "°"}]}]}
